Results published in article PMC7338081.
Results are given in words; binding and its absence hold for the method and conditions named. Binding seen in cells or lysates may run through a third protein. Some results given as binding are weak or reduced against the parent protein; the word gives no strength. One block for each molecule: values may come before it.

The chains behind the UniProt entries cited, without tags or fusion partners.
UniProt P18238: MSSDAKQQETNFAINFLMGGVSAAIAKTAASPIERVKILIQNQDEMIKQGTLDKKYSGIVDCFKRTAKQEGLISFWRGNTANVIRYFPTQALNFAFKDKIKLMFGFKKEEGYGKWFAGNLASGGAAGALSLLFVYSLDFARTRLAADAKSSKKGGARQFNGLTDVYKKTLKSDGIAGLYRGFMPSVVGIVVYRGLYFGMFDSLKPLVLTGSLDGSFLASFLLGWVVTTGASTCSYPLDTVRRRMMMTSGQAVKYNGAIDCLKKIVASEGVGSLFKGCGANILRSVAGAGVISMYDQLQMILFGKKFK
UniProt P04840: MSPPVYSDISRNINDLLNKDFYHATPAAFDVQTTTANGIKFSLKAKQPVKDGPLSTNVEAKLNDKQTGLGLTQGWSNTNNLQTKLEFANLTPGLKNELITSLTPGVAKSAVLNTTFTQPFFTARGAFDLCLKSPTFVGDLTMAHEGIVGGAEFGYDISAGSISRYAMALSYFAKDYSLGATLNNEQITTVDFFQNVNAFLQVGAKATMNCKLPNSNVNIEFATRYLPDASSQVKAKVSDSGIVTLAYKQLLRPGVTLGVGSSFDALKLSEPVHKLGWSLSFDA
UniProt P18239: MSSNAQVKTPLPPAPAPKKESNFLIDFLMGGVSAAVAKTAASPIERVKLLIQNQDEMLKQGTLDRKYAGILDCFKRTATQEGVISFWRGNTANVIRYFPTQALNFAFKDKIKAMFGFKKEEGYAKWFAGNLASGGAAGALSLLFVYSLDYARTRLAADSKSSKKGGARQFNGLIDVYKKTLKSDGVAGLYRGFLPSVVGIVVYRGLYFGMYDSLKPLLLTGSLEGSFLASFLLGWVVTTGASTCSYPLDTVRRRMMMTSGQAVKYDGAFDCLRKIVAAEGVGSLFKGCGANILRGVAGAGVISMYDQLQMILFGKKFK

How the values were obtained:
[1] = molecular target: T1, Cox9 (CIV) (S. cerevisiae (endogenous in YPH499 mitochondria)) (UniProt P07255); experiment: cross-linking; XL-MS, qualitative data sets: purified mitochondria from yeast grown on glycerol or glucose medium, 5 mM BS3, 1 h, room temperature, 10 mM HEPES pH 7.5, 100 mM NaCl; trypsin, peptide SEC, LC-MS/MS, pLink 1, at least two CSMs and spectrum score of 4 or more
T1 sequence: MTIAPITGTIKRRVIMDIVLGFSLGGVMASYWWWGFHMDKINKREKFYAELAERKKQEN

[2] = molecular target: T2, Sdh2 (CII) (S. cerevisiae (endogenous in YPH499 mitochondria)) (UniProt P21801); experiment: as above
T2 sequence: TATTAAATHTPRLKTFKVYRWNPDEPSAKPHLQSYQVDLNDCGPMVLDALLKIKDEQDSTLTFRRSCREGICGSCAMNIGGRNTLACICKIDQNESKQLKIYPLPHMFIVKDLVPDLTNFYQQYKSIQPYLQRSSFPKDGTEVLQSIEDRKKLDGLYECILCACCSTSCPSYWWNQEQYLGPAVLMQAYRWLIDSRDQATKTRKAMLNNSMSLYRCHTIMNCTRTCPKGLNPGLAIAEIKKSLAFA

[3] = molecular target: T3, Min8 (S. cerevisiae (endogenous in YPH499 mitochondria)) (UniProt A5Z2X5); experiment: as above
T3 sequence: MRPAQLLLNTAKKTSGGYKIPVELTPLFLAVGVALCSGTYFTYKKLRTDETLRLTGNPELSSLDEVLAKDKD

[4] = molecular target: T4, Ndi1, the internal NADH:ubiquinone oxidoreductase (S. cerevisiae (endogenous in YPH499 mitochondria)) (UniProt P32340); experiment: as above
T4 sequence: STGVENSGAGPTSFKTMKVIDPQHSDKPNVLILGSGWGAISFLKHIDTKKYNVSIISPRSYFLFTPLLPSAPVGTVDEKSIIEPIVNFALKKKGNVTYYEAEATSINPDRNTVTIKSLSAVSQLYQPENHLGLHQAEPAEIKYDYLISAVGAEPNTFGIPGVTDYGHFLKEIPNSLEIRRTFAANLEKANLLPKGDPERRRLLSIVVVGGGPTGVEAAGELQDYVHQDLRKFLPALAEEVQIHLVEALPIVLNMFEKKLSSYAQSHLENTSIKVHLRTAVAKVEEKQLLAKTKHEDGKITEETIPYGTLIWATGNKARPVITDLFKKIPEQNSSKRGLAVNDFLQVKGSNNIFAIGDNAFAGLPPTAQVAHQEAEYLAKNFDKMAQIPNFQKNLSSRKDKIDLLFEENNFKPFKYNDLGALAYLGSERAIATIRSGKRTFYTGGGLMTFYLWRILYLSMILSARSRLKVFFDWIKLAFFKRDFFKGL

[5] = molecular target: Aac3 (S. cerevisiae (endogenous in YPH499 mitochondria)) (UniProt P18238); experiment: as above
[6] = molecular target: T5, Cor1 (CIII) (S. cerevisiae (endogenous in YPH499 mitochondria)) (UniProt P07256); experiment: as above
T5 sequence: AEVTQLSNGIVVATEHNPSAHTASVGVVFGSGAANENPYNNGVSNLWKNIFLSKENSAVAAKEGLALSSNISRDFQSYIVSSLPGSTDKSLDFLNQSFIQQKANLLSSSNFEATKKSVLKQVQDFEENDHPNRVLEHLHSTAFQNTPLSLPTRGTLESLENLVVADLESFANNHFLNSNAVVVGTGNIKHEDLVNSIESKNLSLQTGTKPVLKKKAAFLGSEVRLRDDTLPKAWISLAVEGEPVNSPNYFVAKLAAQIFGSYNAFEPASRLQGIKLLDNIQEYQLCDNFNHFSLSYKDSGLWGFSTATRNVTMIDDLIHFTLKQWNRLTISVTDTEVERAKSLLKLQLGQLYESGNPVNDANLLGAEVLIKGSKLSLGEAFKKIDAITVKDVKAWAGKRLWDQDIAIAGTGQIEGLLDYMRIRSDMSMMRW

[7] = molecular target: T6, Nde1, the external NADH:ubiquinone oxidoreductase (S. cerevisiae (endogenous in YPH499 mitochondria)) (UniProt P40215); experiment: cross-linking; quantitative XL-MS: purified mitochondria from glycerol- and glucose-grown yeast cross-linked with 5 mM BS3 or BS3-d4 in a label-swap experiment, mixed 1:1, quantified by XiQ on MS1 level
T6 sequence: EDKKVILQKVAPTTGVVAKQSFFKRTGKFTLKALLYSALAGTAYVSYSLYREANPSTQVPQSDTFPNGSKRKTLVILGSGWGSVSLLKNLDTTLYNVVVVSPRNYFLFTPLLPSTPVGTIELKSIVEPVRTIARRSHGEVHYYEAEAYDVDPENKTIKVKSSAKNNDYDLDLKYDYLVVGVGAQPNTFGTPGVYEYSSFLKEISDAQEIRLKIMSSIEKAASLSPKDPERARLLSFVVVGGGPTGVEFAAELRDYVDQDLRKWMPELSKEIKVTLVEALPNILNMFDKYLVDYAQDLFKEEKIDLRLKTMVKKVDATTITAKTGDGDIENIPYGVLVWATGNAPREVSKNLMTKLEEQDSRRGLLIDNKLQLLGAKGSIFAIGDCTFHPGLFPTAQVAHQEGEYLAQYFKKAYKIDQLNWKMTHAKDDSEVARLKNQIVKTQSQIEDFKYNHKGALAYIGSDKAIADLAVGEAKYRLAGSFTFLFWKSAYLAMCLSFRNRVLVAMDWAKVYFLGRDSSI

[8] = molecular target: T7, Phb1 (S. cerevisiae (endogenous in YPH499 mitochondria)) (UniProt P40961); experiment: cross-linking; XL-MS, qualitative data sets: purified mitochondria from yeast grown on glycerol or glucose medium, 5 mM BS3, 1 h, room temperature, 10 mM HEPES pH 7.5, 100 mM NaCl; trypsin, peptide SEC, LC-MS/MS, pLink 1, at least two CSMs and spectrum score of 4 or more
T7 sequence: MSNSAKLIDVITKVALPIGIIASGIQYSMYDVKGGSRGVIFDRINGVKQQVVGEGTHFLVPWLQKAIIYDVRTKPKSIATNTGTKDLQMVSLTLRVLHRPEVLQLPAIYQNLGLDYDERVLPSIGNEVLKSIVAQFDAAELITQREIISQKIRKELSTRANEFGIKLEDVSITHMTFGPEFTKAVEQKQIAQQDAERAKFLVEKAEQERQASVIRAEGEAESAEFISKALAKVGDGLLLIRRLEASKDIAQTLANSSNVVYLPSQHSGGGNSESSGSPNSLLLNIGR

[9] = molecular target: T6, Nde1, the external NADH:ubiquinone oxidoreductase (S. cerevisiae (endogenous in YPH499 mitochondria)); experiment: as above
[10] = molecular target: Por1 (S. cerevisiae (endogenous in YPH499 mitochondria)) (UniProt P04840); experiment: as above
[11] = molecular target: T8, Rcf2 (S. cerevisiae (endogenous in YPH499 mitochondria)) (UniProt P53721); experiment: as above
T8 sequence: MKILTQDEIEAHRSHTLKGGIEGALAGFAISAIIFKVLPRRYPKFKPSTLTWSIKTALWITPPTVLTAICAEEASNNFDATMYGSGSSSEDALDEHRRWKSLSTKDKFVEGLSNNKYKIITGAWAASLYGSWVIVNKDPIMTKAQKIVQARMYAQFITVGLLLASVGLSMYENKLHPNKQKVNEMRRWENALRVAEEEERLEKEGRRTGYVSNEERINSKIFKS

[12] = molecular target: T9, Cox12, a subunit of CIV (S. cerevisiae (endogenous in YPH499 mitochondria)) (UniProt Q01519); experiment: as above
T9 sequence: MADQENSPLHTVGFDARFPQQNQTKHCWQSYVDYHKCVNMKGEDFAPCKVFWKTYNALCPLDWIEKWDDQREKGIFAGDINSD

binding [1]: binds
binding [2]: binds
binding [3]: binds
binding [4]: binds
binding [5]: binds
binding [6]: binds
Molecule: Pet9, the major ADP/ATP carrier (from UniProt P18239 1-318)

binding [7]: binds
binding [8]: binds
binding [9]: binds
binding [10]: binds
B1: Om45 (protein, UniProt P16547 1-393)
chain: MSSRIIVGSAALAAAITASIMVREQKAKGQRREGNVSAYYNGQEYGSSAPPQLGKLHNIKQGIKEDALSLKDALLGVSQKAREEAPKVTKRVISPEEDAQTRKQLGQKAKDSSSQSIFNWGFSEAERRKAIAIGEFDTAKKRFEEAVDRNEKELLSTVMREKKAALDRASIEYERYGRARDFNELSDKLDQQERNSNPLKRLLKNNTGDANTEEAAARSVQGWGDTAQEFGREELEEAKRNASSEPSEAQKRLDELKKIKEKGWFGYNKGEQSEQQIAERVARGLEGWGETAAQLSKDEMDDLRWNYENSKKQLDKNVSDAMDSLSKAKEDLKQYGSHWWSGWTSKVDNDKQALKDEAQKKYDEALKKYDEAKNKFKEWNDKGDGKFWSSKKD

binding [11]: no binding
binding [12]: binds
B2: Min8 (protein, UniProt A5Z2X5 1-72)
chain: T3 sequence
